Results are given in words; binding and its absence hold for the method and conditions named. For part of these data: Binding seen in cells or lysates may run through a third protein. Tags and fused reporters may be left off the sequences shown.
How the values were obtained:
[1] = target: FLAG-eIF4E; assay: summary in the discussion
[2] = target: FLAG-eIF4E; assay: heading of the results (co-immunoprecipitation and resin binding)
[3] = target: FLAG-eIF4E; assay: anti-HA co-immunoprecipitation from HeLa cells co-expressing FLAG-eIF4E, Western blot

Measured: binding

B1: HA-tagged p97 (N-terminal three copies of HA; pcDNA3-HA-p97) (protein, not shown: small tags and cut ends)
chain: VESAIAEGGASRFSASSGGGGSRGAPQHYPKTAGNSEFLGKTPGQNAQKWIPARSTRRDDNSAANNSANEKERHDAIFRKVRGILNKLTPEKFDKLCLELLNVGVESKLILKGVILLIVDKALEEPKYSSLYAQLCLRLAEDAPNFDGPAAEGQPGQKQSTTFRRLLISKLQDEFENRTRNVDVYDKRENPLLPEEEEQRAIAKIKMLGNIKFIGELGKLDLIHESILHKCIKTLLEKKKRVQLKDMGEDLECLCQIMRTVGPRLDHERAKSLMDQYFARMCSLMLSKELPARIRFLLQDTVELREHHWVPRKAFLDNGPKTINQIRQDAVKDLGVFIPAPMAQGMRSDFFLEGPFMPPRMKMDRDPLGGLADMFGQMPGSGIGTGPGVIQDRFSPTMGRHRSNQLFNGHGGHIMPPTQSQFGEMGGKFMKSQGLSQLYHNQSQGLLSQLQGQSKDMPPRFSKKGQLNADEISLRPAQSFLMNKNQVPKLQPQITMIPPSAQPPRTQTPPLGQTPQLGLKTNPPLIQEKPAKTSKKPPPSKEELLKLTETVVTEYLNSGNANEAVNGVREMRAPKHFLPEMLSKVIILSLDRSDEDKEKASSLISLLKQEGIATSDNFMQAFLNVLDQCPKLEVDIPLVKSYLAQFAARAIISELVSISELAQPLESGTHFPLFLLCLQQLAKLQDREWLTELFQQSKVNMQKMLPEIDQNKDRMLEILEGKGLSFLFPLLKLEKELLKQIKLDPSPQTIYKWIKDNISPKLHVDKGFVNILMTSFLQYISSEVNPPSDETDSSSAPSKEQLEQEKQLLLSFKPVMQKFLHDHVDLQVSALYALQVHCYNSNFPKGMLLRFFVHFYDMEIIEEEAFLAWKEDITQEFPGKGKALFQVNQWLTWLETAEEEESEEEAD
no binding: all assays above

Reference: patent US20030022345A1
